Experimental data from the supplement of paper PMC10849652.
This is one part of the list.

Protein sequences, listed by entry. Tags and fused reporters are not part of them. Lines headed by an entry give the natural chain unless they say otherwise; changes in a name come on top.
UniProt Q15388, whole entry, looked up: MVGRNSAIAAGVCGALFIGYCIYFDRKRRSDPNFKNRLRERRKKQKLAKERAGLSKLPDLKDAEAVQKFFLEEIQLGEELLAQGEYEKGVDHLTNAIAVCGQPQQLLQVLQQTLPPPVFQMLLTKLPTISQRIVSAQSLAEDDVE
UniProt Q9BSV6: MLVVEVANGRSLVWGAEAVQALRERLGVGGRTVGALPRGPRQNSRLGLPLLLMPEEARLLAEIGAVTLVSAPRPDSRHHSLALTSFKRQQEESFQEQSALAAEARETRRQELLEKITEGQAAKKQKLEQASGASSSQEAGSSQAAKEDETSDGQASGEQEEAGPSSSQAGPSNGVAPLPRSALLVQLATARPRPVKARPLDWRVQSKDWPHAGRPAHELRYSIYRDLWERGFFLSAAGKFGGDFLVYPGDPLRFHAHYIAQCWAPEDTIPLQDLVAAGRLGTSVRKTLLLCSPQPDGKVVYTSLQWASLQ
UniProt Q9Y3Q8: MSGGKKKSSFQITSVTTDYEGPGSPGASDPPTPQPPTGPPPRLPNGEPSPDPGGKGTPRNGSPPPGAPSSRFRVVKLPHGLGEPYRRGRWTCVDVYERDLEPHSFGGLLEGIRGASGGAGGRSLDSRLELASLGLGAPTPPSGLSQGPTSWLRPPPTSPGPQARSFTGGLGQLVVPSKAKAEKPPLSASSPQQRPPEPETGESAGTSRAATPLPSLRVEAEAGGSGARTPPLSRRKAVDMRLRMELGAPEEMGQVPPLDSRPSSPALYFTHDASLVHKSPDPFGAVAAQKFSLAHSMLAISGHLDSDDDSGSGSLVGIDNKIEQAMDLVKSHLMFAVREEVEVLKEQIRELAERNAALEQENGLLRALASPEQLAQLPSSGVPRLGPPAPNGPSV
UniProt P11387: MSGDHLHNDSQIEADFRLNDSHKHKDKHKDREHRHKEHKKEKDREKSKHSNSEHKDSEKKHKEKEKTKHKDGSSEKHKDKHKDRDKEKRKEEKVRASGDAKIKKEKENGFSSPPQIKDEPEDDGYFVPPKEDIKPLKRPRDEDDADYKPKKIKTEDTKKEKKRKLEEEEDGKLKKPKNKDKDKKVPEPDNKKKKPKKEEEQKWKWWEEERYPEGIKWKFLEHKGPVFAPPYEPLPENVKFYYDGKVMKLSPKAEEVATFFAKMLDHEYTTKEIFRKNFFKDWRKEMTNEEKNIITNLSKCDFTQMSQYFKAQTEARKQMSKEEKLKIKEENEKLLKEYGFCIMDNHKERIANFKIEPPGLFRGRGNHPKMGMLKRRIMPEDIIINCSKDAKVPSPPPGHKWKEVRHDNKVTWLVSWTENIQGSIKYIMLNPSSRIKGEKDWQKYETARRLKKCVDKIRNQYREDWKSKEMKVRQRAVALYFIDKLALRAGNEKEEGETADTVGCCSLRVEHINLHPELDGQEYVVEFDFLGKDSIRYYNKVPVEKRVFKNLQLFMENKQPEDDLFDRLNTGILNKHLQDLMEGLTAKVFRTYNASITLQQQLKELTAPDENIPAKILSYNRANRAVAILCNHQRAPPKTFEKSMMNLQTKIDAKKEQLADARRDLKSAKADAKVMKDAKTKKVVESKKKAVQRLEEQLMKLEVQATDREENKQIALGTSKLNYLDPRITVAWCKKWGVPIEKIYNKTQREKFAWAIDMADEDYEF
UniProt Q15645: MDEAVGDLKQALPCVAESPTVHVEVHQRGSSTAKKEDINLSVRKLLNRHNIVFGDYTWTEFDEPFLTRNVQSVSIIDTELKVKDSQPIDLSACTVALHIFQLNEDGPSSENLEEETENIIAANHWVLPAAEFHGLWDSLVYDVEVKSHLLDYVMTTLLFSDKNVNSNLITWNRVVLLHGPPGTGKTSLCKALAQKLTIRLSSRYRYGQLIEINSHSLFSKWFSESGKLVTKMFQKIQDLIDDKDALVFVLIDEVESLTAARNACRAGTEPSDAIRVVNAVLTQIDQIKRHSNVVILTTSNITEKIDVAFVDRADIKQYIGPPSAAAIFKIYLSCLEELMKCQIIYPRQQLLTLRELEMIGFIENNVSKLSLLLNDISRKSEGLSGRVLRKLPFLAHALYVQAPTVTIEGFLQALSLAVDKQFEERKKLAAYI
UniProt Q9C037: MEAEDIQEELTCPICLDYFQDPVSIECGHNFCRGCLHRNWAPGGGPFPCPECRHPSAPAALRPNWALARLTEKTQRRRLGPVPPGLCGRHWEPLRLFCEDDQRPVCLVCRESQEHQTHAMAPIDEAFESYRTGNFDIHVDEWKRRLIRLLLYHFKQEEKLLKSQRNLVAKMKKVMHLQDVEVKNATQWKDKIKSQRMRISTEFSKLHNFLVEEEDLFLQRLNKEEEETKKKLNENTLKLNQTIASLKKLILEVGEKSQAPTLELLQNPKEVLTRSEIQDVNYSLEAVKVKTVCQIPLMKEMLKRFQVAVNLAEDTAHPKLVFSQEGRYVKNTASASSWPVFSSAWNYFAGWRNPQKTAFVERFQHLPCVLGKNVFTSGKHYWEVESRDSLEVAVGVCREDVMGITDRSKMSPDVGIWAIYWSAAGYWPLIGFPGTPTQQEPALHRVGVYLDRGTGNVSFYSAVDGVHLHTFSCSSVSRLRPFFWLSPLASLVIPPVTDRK
UniProt Q5JU69: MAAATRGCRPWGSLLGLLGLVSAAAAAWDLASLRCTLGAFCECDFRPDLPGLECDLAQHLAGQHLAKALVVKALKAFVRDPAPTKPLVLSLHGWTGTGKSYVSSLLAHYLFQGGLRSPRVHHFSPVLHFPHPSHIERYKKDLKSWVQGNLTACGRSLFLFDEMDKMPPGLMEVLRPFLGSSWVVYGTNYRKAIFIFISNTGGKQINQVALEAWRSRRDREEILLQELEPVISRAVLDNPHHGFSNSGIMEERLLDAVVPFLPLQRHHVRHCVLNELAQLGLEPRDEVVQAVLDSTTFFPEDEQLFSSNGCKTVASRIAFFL
UniProt O43715: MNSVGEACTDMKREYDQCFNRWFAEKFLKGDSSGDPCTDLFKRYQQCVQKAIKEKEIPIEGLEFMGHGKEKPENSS
UniProt Q15643: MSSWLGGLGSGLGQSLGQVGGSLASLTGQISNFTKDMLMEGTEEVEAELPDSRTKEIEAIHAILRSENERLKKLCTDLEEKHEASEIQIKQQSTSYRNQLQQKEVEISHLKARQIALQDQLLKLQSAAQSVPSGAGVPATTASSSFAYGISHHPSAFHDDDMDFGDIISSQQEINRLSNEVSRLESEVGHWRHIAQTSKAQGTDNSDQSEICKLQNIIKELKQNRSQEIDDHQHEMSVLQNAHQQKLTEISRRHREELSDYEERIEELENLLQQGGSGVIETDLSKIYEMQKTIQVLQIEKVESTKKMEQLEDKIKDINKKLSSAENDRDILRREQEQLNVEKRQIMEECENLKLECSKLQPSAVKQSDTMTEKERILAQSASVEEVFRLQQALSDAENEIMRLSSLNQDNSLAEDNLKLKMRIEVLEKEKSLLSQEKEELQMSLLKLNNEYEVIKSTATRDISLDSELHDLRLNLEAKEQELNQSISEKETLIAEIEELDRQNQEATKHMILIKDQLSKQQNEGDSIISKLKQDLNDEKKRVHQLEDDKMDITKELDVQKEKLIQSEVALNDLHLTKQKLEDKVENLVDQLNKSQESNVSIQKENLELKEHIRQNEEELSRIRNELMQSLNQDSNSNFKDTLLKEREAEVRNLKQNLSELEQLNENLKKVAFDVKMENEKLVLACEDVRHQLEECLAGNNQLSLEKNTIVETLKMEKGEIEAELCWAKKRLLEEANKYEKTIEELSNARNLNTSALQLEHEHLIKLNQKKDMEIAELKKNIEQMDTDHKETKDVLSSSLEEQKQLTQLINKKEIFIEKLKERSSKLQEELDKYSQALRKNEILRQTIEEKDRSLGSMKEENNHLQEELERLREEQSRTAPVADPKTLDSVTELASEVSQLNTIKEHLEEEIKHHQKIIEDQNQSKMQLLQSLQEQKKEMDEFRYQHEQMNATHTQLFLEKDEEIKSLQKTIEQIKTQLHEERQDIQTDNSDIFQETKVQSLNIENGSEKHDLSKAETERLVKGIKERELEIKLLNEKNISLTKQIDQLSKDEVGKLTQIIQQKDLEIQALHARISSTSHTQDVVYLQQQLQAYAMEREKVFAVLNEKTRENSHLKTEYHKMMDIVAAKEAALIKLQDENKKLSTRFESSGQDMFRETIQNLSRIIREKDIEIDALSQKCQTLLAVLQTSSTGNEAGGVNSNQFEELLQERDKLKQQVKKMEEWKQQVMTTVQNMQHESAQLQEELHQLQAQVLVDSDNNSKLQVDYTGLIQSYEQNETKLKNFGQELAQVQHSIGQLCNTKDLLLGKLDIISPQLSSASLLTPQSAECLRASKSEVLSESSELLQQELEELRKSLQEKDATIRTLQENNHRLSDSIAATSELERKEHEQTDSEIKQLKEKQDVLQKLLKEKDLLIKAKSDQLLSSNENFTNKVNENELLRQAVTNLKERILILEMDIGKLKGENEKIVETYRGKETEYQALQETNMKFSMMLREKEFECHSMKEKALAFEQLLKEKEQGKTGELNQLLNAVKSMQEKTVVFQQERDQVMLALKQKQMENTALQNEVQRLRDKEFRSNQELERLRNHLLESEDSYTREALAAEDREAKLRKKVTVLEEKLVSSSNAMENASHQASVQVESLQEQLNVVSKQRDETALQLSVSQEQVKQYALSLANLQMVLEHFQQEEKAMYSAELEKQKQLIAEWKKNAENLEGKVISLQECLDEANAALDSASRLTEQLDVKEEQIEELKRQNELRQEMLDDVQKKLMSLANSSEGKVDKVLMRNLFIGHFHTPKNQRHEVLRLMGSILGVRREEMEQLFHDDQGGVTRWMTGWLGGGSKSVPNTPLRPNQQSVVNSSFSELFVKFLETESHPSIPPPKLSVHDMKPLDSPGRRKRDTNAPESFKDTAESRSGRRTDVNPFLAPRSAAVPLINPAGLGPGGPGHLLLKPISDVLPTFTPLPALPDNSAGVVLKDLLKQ
UniProt Q15654: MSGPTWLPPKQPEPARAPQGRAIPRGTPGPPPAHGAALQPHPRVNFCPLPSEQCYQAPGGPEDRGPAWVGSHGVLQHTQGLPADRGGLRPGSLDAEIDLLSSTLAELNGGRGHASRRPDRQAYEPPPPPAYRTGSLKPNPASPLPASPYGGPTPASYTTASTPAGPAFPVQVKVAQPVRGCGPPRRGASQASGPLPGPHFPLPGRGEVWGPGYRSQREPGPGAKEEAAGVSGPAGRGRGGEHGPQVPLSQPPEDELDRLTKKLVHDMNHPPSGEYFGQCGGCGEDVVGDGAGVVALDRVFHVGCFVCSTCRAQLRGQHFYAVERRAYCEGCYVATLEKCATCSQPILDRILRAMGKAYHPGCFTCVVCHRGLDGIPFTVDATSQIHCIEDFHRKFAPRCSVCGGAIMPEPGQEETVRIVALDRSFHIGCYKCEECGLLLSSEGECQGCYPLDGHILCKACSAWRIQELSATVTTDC
UniProt Q8NFQ8: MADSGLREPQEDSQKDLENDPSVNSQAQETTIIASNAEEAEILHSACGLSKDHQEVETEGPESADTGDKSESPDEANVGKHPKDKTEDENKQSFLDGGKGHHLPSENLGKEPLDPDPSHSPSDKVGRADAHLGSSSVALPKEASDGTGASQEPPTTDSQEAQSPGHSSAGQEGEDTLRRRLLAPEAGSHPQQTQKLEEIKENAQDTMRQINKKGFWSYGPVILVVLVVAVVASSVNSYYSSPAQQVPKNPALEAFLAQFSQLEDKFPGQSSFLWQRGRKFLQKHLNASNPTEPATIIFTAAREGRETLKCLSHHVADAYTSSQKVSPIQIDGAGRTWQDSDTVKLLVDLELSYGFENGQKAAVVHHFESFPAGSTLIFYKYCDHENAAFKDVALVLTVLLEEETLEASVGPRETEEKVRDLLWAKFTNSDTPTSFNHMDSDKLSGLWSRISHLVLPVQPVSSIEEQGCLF
UniProt Q9UJA5: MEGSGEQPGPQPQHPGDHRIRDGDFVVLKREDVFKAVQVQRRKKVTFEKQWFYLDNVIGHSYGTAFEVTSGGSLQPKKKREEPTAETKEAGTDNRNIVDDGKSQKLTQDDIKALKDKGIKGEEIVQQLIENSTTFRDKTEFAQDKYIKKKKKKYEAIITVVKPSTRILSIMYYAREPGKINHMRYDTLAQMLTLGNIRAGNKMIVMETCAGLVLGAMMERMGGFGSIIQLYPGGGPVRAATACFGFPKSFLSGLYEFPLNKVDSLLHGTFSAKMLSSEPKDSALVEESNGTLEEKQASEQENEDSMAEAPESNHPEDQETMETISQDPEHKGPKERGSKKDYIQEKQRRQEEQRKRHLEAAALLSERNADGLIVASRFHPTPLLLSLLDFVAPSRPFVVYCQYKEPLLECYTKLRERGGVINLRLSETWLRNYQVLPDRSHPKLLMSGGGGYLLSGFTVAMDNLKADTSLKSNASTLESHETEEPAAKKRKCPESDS

Compound: CCCc1cc(C)[nH]c(=O)c1CNC(=O)c1cc(-c2ccnc(N3CCN(C)CC3)c2)cc2c1cnn2C(C)C
Assay: log2 fold change, soluble protein after heating vs DMSO (PISA); higher = thermal stabilisation; K562 cells, 10 uM, 30 min; active = over 0.2 and 3.5 SD of the protein, either way, in both replicates (recomputed)
Method in brief: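 Thermal stability values are relative to control samples and come from duplicates. They are expressed as log2 fold changes. For measurement, K562 cells (2×10^6 cells/mL) received 10 μM compound for 30 min, and aliquots were heated for 3 min over 48°C-58°C, pooled, and extracted at 4°C in PBS with 0.5% NP-40. Soluble protein, the supernatant after 21,000xg for 90 min, was quantified by TMTpro 16plex LC-MS/MS with equalised channel sums.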

log2 fold change, inactive:
TOMM20 (UniProt Q15388) 0.026
TSEN34 (UniProt Q9BSV6) -0.054
TSC22D4 (UniProt Q9Y3Q8) -0.008
TOP1 (UniProt P11387) 0.214
TRIP13 (UniProt Q15645) -0.028
TOP3B (UniProt O95985) 0.088
TRIM4 (UniProt Q9C037) 0.046
TPM3 isoform 4 (UniProt P06753) -0.03
TPP2 (UniProt P29144) 0.099
TOMM40 (UniProt O96008) -0.02
TRAPPC8 (UniProt Q9Y2L5) 0.012
TOR2A (UniProt Q5JU69) -0.009
TRIAP1 (UniProt O43715) 0.003
TRIP11 (UniProt Q15643) 0.113
TRIP6 (UniProt Q15654) 0.018
TP53RK (UniProt Q96S44) -0.013
TOR1AIP2 (UniProt Q8NFQ8) -0.018
TOE1 (UniProt Q96GM8) 0.059
TPM4, A0A2R8Y5V9 -0.016
TRIM11 (UniProt Q96F44) -0.004
TRMT6 (UniProt Q9UJA5) 0.089
TOM1 isoform 2 (UniProt O60784) 0
TP53I3 (UniProt Q53FA7) -0.102

Two records drawn at random from the list so far:
log2 fold change, inactive:
TSEN34 (UniProt Q9BSV6) -0.054
TOP3B (UniProt O95985) 0.088
